Test results from paper PMC8024306.

Tests used:
[1] = target: GST-tagged full-length HMR (GST-HMR) (Arabidopsis thaliana); assay: pull-down; pulldown of HMR22 (D516N) against wild-type HMR with RCB; details only in Supplementary Fig. 2
[2] = target: GST-tagged full-length HMR (GST-HMR) (Arabidopsis thaliana); assay: pull-down; GST or GST-HMR baits immobilized on glutathione Sepharose beads; in vitro translated HA-RCB preys, 4 °C for 2 h; washed with E buffer (50 mM Tris-HCl pH 7.5, 100 mM NaCl, 0.1% Nonidet P-40); anti-HA immunoblot; only the target purified

B1: HA-tagged full-length RCB (HA-RCB) (protein, UniProt F4JLC1 1-331)
chain: MSFFAVACSAPRSSMLLTGLNSSFSDMHRSPLFVFPVTISSRSVKRFAAVSSDSVLDPESKNQTRSRRKNKEAVTPIAETENNEKFPTKVPRKSKRGRRSEADAVEDYVRSSLERTFSTIKEQNPEVFENKEKANFIKDRGVDEEEEEEEEMVVEEEDPDWPVDTDVGWGIKASEYFDTHPIKNVVGDDGSEIDWEGEIDDSWVKEINCLEWESFAFHPSPLVVLVFERYKRASDNWKTLKELEKAIKVYWDAKDRLPPRAVKIDLNIETDLAYALKAKECPQILFLRGNRILYREKDFRTADELVHMIAHFYYKAKRPSCVDKANVTPYC
binding [1]: binds
binding [2]: binds

No constants are given. Whether binding was seen depends on the method and setting. In cells and extracts the contact can be indirect. A result given as binding can be weak or reduced; the word gives no strength. Tags and fused reporters may be left off the sequences shown.
